The campaign covered roughly 1,200 compounds. Fewer than 10 were called active. The call rests on the fitted dose curve; in most records, active means well fitted curve in the direction sought with a large enough effect; inconclusive means small, poorly fitted or top-dose-only effect, or another doubt; inactive means no such curve, though single readings can be large or run the other way. This is one part of the list.
Biological target: Transcriptional regulator ERG (Homo sapiens) (UniProt P11308)
Assay: qHTS for Small Molecule Inhibitors of the ERG Ets/DNA interaction: TR assay against cherry picks; further: % of control where 0% means no effect
Details: ERG Ets domain-DNA fluorescence polarization, Texas red probe; at 154 µM (top of the series)
Text: The Ets family of proteins is a family of ~30 conserved transcription factors defined by the presence of an ~85 amino acid domain referred to as the Ets domain, which mediates sequence-specific DNA binding to a core DNA element GGAA/T.The Ets family member ERG has been linked to several neoplasms. […] More extensive studies of the effects of over-expression of ERG in prostate cells have recently been carried out and have shown that over-expression of ERG results in increased invasion. […] We will carry out a high throughout screen to identify inhibitors of the interaction between ERG and DNA using a fluorescence polarization (FP) assay with a His-tagged ERG Ets domain and fluorescently-labeled DNA probes to develop small molecule inhibitors of this interaction as probes to test this hypothesis and lay the groundwork for the development of targeted therapies against ERG. This is the confirmation against the cherry picks in theprimary screening assay. NIH Molecular Libraries Probe Production Network [MLPCN] NIH Chemical Genomics Center [NCGC] Grant: NS066464 PI Name: John Bushweller, University of Virgina
1.5 ul of protein solution (1 uM ERG domain in 300mM KCl, 50mM Tris-HCl, 1mM EDTA, 1mM DTT, pH 7.5); 20 nl Control plate and compound library plate; 1.5 ul mixture of 5 nM Fluorescein-DNA and 100nM Texas-615-DNA solution in same buffer as above solution; measure fluorescence polarization sequentially for fluorescein (Excitation = 480 nm, Emission = 535s, 535p nm) and Texas red (Excitation = 555 nm, Emission = 632s, 632p nm).

Amino acid sequences for entries named in this document (tags omitted). A change or cut given only in a name is not applied to a line headed by its entry.
UniProt P11308: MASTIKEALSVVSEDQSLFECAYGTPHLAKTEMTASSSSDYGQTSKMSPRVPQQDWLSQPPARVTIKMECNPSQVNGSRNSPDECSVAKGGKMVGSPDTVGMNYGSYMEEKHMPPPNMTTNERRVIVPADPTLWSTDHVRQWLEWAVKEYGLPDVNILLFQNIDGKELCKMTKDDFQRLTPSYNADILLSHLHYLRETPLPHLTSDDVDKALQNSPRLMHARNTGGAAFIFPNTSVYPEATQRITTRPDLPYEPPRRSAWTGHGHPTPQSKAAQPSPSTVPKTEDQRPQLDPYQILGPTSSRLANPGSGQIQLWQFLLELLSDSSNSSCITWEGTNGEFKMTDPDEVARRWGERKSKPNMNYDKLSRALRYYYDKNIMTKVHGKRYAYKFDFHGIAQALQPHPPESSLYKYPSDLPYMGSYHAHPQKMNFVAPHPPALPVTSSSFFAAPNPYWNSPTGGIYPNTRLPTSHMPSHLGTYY

Activity change, negative = inhibition, inactive:
CNC(=O)c1cccc(-n2c(C)nc3cccnc32)c1C 13%
CN1CCN(C(=O)C2=C[C@@H](C(C)(C)C)C[C@@H](OCc3ccc(CO)cc3)O2)CC1 2.83%
COc1ccc(NC(=O)C2CC(=O)n3c(nc4ccccc43)N2)cc1 (stereo not drawn) 10.4%
COc1ccc(-c2csc3nc(-c4ccc(C)cc4)oc(=O)c23)cc1OC 5.65%
C/C(=N\Nc1ccc([N+](=O)[O-])cc1[N+](=O)[O-])C(C)C(C)C (stereo not drawn) -0.325%
Cc1nc(Nc2cccc(F)c2)c2oc3ccccc3c2n1 1.1%
CCC(=O)NCCn1c(C)cc2ccccc21 4.77%
COc1cc(/C=C/C(=O)OCC(=O)NC(=O)NC2CCCCC2C)ccc1OC(F)F (stereo not drawn) 1.76%
COc1ccc(C)cc1N(C(=O)c1ccc(C#N)cc1)C1=NC(C)(C)CS1 -7.4%
COc1ccc(S(=O)(=O)NCC2CC3C=CC2C3)cc1OC (stereo not drawn) -2.44%
Cc1ccccc1OCC(=O)Nc1ccc2[nH]ncc2c1 -5.59%
CC(C)C(=O)Nc1ccc(-c2nc3ncccc3o2)cc1 2.57%
COc1ccc(OCCn2c(=O)sc3ccccc32)cc1 3.71%
COc1ccccc1OCC(O)CN1CCN(CC(=O)Nc2c(C)cccc2C)CC1 (stereo not drawn) 1.41%
CC(C)=CCOc1ccc2c(C)c(CC(=O)N3C[C@H]4C[C@@H](C3)c3cccc(=O)n3C4)c(=O)oc2c1C -10.3%
CCOC(=O)C(=O)c1c(-c2ccccc2)nc2ccccn12 -0.0707%
CN1C(=O)c2cccc3c(N)ccc(c23)C1=O 5.1%
O=C(CCNS(=O)(=O)c1ccc2c(c1)CCN2C(=O)C1CC1)Nc1ccc(F)cc1F -13.1%
O=C1c2ccccc2C(=O)c2c1ncn2-c1ccccc1 -4.24%
Cc1ccc(-c2nc(CN3CCCC(C(=O)N4CCOCC4)C3)c(C)o2)cc1 (stereo not drawn) 4.94%
Cc1ccccc1NC(=O)c1ccccc1-c1ccccc1 -8.52%
COc1ccc(CNC(=O)N[C@@H](Cc2c[nH]c3ccccc23)C(=O)O)cc1 3.14%
Nc1ccc2[nH]ncc2c1 5.38%
COc1ccc(NS(=O)(=O)c2cccc(NC(=O)NC3CCCCC3)c2)cc1 -10.5%
O=C(c1c(F)cccc1Cl)N1CCN(c2ccccn2)CC1 4.07%
O=C(CCc1c[nH]c2ccccc12)NCc1ccco1 -11.1%
Cc1ccc(NC(=O)Cc2c(O)c3ccccc3[nH]c2=O)c(C)c1 5.52%
COc1ccc(C(=O)Nc2nc(-c3ccc(OC)cc3)c(-c3ccc([N+](=O)[O-])cc3)s2)cc1 2.54%
Cc1ccc(OCCn2cc(/C=N/NC(=O)c3ccncc3)c3ccccc32)cc1 -10.8%
CCN(C(=O)COC(=O)c1ccc(=O)n(Cc2ccccc2)n1)C1CCS(=O)(=O)C1 (stereo not drawn) 1.68%
COc1cc(CO)ccc1OCC(=O)Nc1cccc2ccccc12 -4.89%
COCCN1C=C2C(=O)C(C)(OC(=O)CCC(=O)OC)C(=O)C=C2C=C1C1CC1 (stereo not drawn) 1.47%
O=C(NCc1cccs1)c1ccc([N+](=O)[O-])cc1 -1.6%
O=C(CN1C(=O)NC2(CCCC2)C1=O)Nc1nc2ccccc2s1 -9.58%
CC(=O)Oc1ccc(C(=O)Nc2ccccc2C(=O)Nc2ccc(C(=O)O)cc2)cc1 -1.26%
COc1cc(NC(=O)COC(=O)CNC(=O)C2CCCCC2)cc(OC)c1 6.23%
O=C1c2ccc3c4c(ccc(c24)C(=O)N1CCCCO)C(=O)N(CCCCO)C3=O -5.89%
COc1cccc(NC(=O)NNC(=O)c2ccc3c(c2)NC(=O)C(C)(C)O3)c1 4.75%
COCC(=O)NCc1ccc2c(c1)cc(C)n2C 1.54%
Cc1cc(C)c(/C=C2\C(=O)Nc3ccccc32)[nH]1 365%
COC(=O)C(CCSC)NC(=O)c1cc2c(n(-c3ccccc3)c1=O)CC(C)(C)CC2=O (stereo not drawn) 4.45%
O=C(/C=C/c1ccccc1)NCCc1nc2ccccc2[nH]1 -1.61%
CC1(C)CC(=O)C2=C(C1)Nc1ccccc1NC2c1nc2ccccc2[nH]1 (stereo not drawn) 1.35%
O=C(NCCN1CCN(Cc2ccccc2Cl)CC1)Nc1ccccc1 20.2%
COc1ccc(CCNC(=O)c2cccc(S(=O)(=O)N3CCCC3)c2)cc1 0.22%
COc1cnn(-c2cccc(Cl)c2)c(=O)c1Cl -8.08%
CCn1nc(C)cc1C(=O)N1CCCC(N2CCN(Cc3ccc4c(c3)OCO4)CC2)C1 (stereo not drawn) 0.513%
COc1ccc(CC(=O)OCC(=O)c2ccc(OC)cc2)cc1 2.92%
S=c1[nH]nc(CSCCOc2ccccc2)o1 -12.2%
O=C(COC(=O)COc1ccc(Cl)cc1)NCCCc1ccccc1 -14.4%
COc1ccc(CNCCC2(C(C)C)CCOC(C)(C)C2)cc1 (stereo not drawn) 5.23%
CC(=O)Nc1cccc(S(C)(=O)=O)c1 1.2%
COc1ccc(-c2cc(C(F)(F)F)n3nc(C(=O)N(C)Cc4ccccc4)cc3n2)cc1OC -11.8%
CC(C)c1ccc(NC(=O)CSc2nc(-c3ccccc3F)nc3nc[nH]c23)cc1 4.16%
COCCn1c(=O)c2c(nc3n2CC(C)CN3CCc2ccccc2)n(C)c1=O (stereo not drawn) -9.7%
CC(C)(C)c1ccc(C(=O)NCC(=O)OCC(=O)Nc2ccccc2[N+](=O)[O-])cc1 -11%
CC(=O)Nc1ccc(S(=O)(=O)NCC(=O)OCC(=O)NCc2ccco2)cc1 12.3%
O=C(CCC1CCCN(C(=O)c2ccsc2)C1)NCc1ccc(F)c(F)c1 (stereo not drawn) 13.5%
O=C(Nc1ccccc1)c1sccc1Oc1ccc([N+](=O)[O-])cc1F -2.74%
CC(=O)NNc1cc(N2CCOCC2)nc(N2CCOCC2)n1 30%
CC(C)n1cc(/C=N/NC(=O)COc2cccc3cccnc23)c2ccccc21 -3.87%
CC(C)CNC(=O)CCc1nc(-c2ccccc2)no1 -4.45%
CC1CC(C)CN(CCCNS(=O)(=O)c2cc(Br)cc3c2N(C(=O)C2CC2)CC3)C1 (stereo not drawn) -24.7%
COc1ccc(NC(=O)COc2ccccc2Cc2ccccc2)cn1 -10.6%
NC(=O)c1cc(S(=O)(=O)NCCc2ccccc2)cs1 -0.986%
Cc1cccc(NC2(C(=O)O)CCCC2)c1 -8.83%
Cc1cccc(C(=O)NCCNc2nc3cc(C)c(C)cc3cc2C)c1 -15%
CN(C(=O)CSc1nc(-c2ccccc2)c(-c2ccccc2)o1)C1CCS(=O)(=O)C1 (stereo not drawn) 1.33%
COc1ccccc1NS(=O)(=O)c1cc(C(=O)N2CCCC2)ccc1C 6.04%
COc1ccc(C(=O)c2cccc(C(=O)c3ccc(OC)c(C)c3)c2)cc1C -5.02%
Cc1cnccc1CNC(=O)CC1C(=O)NCCN1CC(C)(C)C (stereo not drawn) -7.1%
O=C(O)CNC(=O)CC1S/C(=N/N=C/c2ccccc2O)NC1=O (stereo not drawn) 5.01%
Cc1cccc(C)c1OCC(=O)N(Cc1ccc(Cl)cc1)C1CCS(=O)(=O)C1 (stereo not drawn) -3.8%
COc1cccc(-c2nn(C)c3sc(C(=O)NCc4ccc(OC)cc4OC)cc23)c1 -7.44%
Cc1cccc(C)c1NC(=O)C1(N2C(=O)CC2c2ccccc2)CCCCC1 (stereo not drawn) 0.216%
CNCCCOc1cc(C)cc(C)c1C 4.73%
CCN(CC)CCNC(C(=O)Nc1ccc([N+](=O)[O-])cc1Br)c1ccccc1 (stereo not drawn) 2.72%
Cc1nn(CC(=O)NCCCN2CCCC2)c(=O)c2nn(-c3ccccc3)c(C)c12 -6.92%
Cc1ccc2nc(COc3cccc(NC(=O)c4cccc(Cl)c4)c3)cc(=O)n2c1 -1.72%
COc1ccc(C2c3[nH]c4ccccc4c3C[C@H]3C(=O)N(c4ccccc4C(=O)N4CCC[C@@H]4C(=O)O)C(=O)N23)cc1 (stereo partly drawn) -1.72%
O=C1CCC(C(=O)N2CCCCO2)CN1CCc1ccc(Cl)cc1 (stereo not drawn) -5.39%
COCCCC/C(=N\OCCN)c1ccc(C(F)(F)F)cc1 -9.14%
COc1ccc([N+](=O)[O-])c(OC)c1C(=O)NC(=O)Nc1c(F)c(F)c(F)c(F)c1F -7%
O=C(/C=C/c1ccc(Br)cc1)c1ccc(NC2=NCCCS2)cc1 5.28%
NC(=O)c1ccccc1O -0.849%
CCCCC1=CC2=CC(=O)C(C)(OC(=O)CC)C(=O)C2=CN1CCOC (stereo not drawn) -0.532%
O=C(COc1ccc(S(=O)(=O)N2CCOCC2)cc1Cl)NCCCn1ccnc1 -10.1%
Oc1ccc(NCc2ccc(OCc3ccccc3)cc2)cc1 -2.46%
CCc1ccc(Nc2ncnc3nc[nH]c23)cc1 -5.72%
COc1cc(C(=O)Nc2ccc(Cl)c([N+](=O)[O-])c2)cc(OC)c1OC -8.44%
S=C(NCCc1ccccc1)Nc1ccc(Cl)cc1Cl 0.951%
O=C(CSc1nnnn1-c1ccccc1)Nc1nc(-c2ccccc2)ns1 2.58%
CC(NC(=O)c1cn(C)c2ccc(S(=O)(=O)N3CCCC3)cc2c1=O)c1ccccc1 (stereo not drawn) -1.61%

In the list so far, these have a COOH group:
Activity change, negative = inhibition, inactive:
COc1ccc(CNC(=O)N[C@@H](Cc2c[nH]c3ccccc23)C(=O)O)cc1 3.14%
CC(=O)Oc1ccc(C(=O)Nc2ccccc2C(=O)Nc2ccc(C(=O)O)cc2)cc1 -1.26%
Cc1cccc(NC2(C(=O)O)CCCC2)c1 -8.83%
O=C(O)CNC(=O)CC1S/C(=N/N=C/c2ccccc2O)NC1=O (stereo not drawn) 5.01%
COc1ccc(C2c3[nH]c4ccccc4c3C[C@H]3C(=O)N(c4ccccc4C(=O)N4CCC[C@@H]4C(=O)O)C(=O)N23)cc1 (stereo partly drawn) -1.72%

— PubChem BioAssay AID651803 (National Center for Advancing Translational Sciences (NCATS), 2012)
